Results are given in words; binding and its absence hold for the method and conditions named. In cells and extracts the contact can be indirect. Some binding calls cover weakened binding; strength is not graded here.

Sequences of proteins named here, by UniProt entry; tags and fusion partners are left off. A change or cut given only in a name is not applied to a line headed by its entry.
UniProt Q9HC16: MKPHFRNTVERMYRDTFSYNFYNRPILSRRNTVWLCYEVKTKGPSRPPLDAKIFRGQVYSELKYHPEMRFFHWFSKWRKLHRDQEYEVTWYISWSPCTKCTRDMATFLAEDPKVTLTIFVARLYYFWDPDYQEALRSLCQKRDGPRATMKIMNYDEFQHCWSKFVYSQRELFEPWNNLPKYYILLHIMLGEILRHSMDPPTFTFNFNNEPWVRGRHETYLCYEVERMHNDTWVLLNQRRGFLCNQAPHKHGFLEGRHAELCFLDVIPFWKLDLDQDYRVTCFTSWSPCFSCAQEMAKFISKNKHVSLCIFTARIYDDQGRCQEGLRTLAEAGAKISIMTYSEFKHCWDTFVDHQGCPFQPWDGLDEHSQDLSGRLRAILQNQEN

This assay concerns the target wild-type human APOBEC3G with a fused HA tag at the C-terminus (human) (UniProt Q9HC16). Put plainly: co-immunoprecipitation with anti-HA after RNase A treatment, Western blot with anti-CA. (A western blot detects proteins with antibodies after separation by electrophoresis.)

On to “Gag of HIV-1 BH10 expressed from BH10.P-.Vif- or BH10.FS-.Vif- proviral DNA (from UniProt P03347 1-512)”, for which the binding result is recorded as “binds”.

These data come from US20060002951A1.
